Publication PMC5603801
Construct, isoform or probe ends are uncertain for at least one entry. No signal at the amounts used counts as a negative. Where a protein sequence is shown, tags need not be part of it.

System: T1, PnpM-His6 (Pseudomonas sp. strain WBC-3)
T1 sequence (looked up, limits assumed): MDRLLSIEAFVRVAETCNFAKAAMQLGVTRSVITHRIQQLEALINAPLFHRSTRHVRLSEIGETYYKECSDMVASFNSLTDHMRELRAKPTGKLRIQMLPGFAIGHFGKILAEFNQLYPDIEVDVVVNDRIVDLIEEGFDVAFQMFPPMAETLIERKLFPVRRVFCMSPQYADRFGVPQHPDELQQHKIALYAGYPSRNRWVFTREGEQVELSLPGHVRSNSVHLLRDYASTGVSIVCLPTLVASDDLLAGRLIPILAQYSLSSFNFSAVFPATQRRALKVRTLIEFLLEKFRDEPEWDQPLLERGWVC
Assay: EMSA
Conditions: EMSA: 0.03 uM DNA, 0-2.0 uM PnpM-His6, +/-0.3 mM PNP, 30 min room temperature, 6% native PAGE at 4 C in Tris-borate, binding buffer, salt and pH not given, recombinant protein, protein details: C-terminal His6, probe letters rebuilt from the primers and the genome

Sequence | binding result (0.3 mM PNP, up to 2.0 uM PnpM) | binding result (0.3 mM PNP, 0.03 uM DNA, fully bound at 2.0 uM PnpM) | binding result (no PNP, 0.03 uM DNA, fully bound at 2.0 uM PnpM)
CGGGATCCCATGTCGGTTTCCTTGATAAAAATATTGTCTTATTTCTTTCGGCTTATGTGTGCGTGGCACTTAAACCTGTTCAAACACCTTGCGGTGGTTGCTTGTTGCAGCATGAGCAGACAAAGAAAACAACACAACCGTATCAAGGTTCAGTATTTGCAAACGTTCCGGTTGGCAAATTAGAACGATCGAAAATGCAATCGGCTAGTTCGGGAAAATCAAACTAAATCGCATTGCTTCGATAATTCCTGAAGGTTTAGGCTGAATCCAGTTGCCTGCAATTGCCTGGATTACATTCCAAGTAGCAGGCTTTCCCTGCGAGCCGTTTTCTATAGGAAGCATGCATGT (double strand) [PpnpB] | no binding | – | –
CGGGATCCCATTTTATTTTTCCTATAGAAAACGGCTCGCAGGGAAAGCCTGCTACTTGGAATGTAATCCAGGCAATTGCAGGCAACTGGATTCAGCCTAAACCTTCAGGAATTATCGAAGCAATGCGATTTAGTTTGATTTTCCCGAACTAGCCGATTGCATTTTCGATCGTTCTAATTTGCCAACCGGAACGTTTGCAAATACTGAACCTTGATACGGTTGTGTTGTTTTCTTTGTCTGCTCATGCTGCAACAAGCAACCACCGCAAGGTGTTTGAACAGGTTTAAGTGCCACGCACACATAAGCCGCATGCATGT (double strand) [PpnpA] | no binding | – | –
ACATGCATGCATTCGGACTGGTCGATAAACTCGGCAAAGCGCAAAACCCCGTCAAACAATGATCAAACCTGTGGGAGCAAAGCTTGCTCGCGATAGCGGTGTGTCAGTCAACATTTGTGCTGAATGACGCTTCGCTATCGCGAGCAAGCTTTGCTCCCACAGGTGTCCCACAGGTGTCTGTGCTGTTGATCGTTCGCGTTTCGCAAACACAATTGTCGGCCGGCGCCTAATTGTTCCCCTCATCAACGCGACGTACCGTGATCTCACCGCATTACAACAAAAAAGGTGAAATCATGGGATCCCG (double strand) [PpnpC (EMSA fragment)] | – | binds | binds
